Publication PMC9035678

Chains of the proteins cited; added tags and fusions are not shown. Lines headed by an entry give the natural chain unless they say otherwise; changes in a name come on top.
UniProt O04379: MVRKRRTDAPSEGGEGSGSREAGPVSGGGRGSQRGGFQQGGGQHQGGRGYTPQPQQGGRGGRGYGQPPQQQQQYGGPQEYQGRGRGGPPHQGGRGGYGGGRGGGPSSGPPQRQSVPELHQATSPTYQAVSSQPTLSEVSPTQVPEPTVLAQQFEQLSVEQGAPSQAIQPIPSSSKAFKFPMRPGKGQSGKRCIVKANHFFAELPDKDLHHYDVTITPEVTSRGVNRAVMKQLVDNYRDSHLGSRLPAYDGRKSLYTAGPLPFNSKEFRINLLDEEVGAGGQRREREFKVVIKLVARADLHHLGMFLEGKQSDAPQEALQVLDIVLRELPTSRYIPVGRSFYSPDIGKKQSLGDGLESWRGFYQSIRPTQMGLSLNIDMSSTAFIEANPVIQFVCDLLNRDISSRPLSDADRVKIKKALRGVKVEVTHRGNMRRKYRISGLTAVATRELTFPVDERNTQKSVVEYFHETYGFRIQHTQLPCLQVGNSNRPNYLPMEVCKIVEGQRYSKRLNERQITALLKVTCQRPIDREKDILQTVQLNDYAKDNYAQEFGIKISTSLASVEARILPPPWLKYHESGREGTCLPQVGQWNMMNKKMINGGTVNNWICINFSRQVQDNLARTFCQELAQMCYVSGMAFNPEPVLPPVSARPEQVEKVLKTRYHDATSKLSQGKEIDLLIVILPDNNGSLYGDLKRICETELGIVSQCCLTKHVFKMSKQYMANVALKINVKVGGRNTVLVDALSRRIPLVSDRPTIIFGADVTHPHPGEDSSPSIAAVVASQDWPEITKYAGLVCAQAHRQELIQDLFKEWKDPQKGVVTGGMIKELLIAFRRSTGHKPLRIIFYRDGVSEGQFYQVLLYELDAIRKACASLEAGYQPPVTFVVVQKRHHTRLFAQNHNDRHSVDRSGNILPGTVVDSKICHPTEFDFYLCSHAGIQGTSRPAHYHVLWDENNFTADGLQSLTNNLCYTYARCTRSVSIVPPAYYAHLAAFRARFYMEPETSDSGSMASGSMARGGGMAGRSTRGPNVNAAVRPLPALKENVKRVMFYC

Target: T1, 3HA-FBW2 (3x human influenza hemagglutinin (HA)-epitope at the N terminus of FBW2) (Arabidopsis thaliana) (UniProt Q9ZPE4)
T1 sequence: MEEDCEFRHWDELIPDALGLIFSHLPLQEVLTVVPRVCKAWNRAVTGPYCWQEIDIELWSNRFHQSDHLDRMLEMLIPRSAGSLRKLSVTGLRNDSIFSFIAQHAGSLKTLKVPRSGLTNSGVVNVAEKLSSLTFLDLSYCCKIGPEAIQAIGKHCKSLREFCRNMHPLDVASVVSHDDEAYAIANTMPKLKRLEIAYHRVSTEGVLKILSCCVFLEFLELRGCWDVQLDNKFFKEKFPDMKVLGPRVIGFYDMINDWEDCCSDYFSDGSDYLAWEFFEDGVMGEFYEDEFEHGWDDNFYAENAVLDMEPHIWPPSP
Assay: co-IP; 3HA-FBW2 immunoprecipitated with anti-HA magnetic beads from extracts of 10-day-old XVE:3HA-FBW2 seedlings after overnight induction with DMSO or 10 μM β-estradiol, with or without MLN4924; IP buffer 25 mM Tris HCl pH 7.5, 150 mM NaCl, 10% glycerol, 5 mM MgCl2, 0.1% Tween 20, 15 mM EGTA, 10 μM MG132; 3 h at room temperature; western blot (Figure 2B, Figure S9)

| Substance | binding |
| --- | --- |
| AGO1-27 mutant protein (from UniProt O04379) | binds |
| RBX1 | binds |

These are yes or no findings as the source states them, for the method shown. Binding seen in cells or lysates may run through a third protein. Binding calls can cover weak binding; strength is not graded here. Tags and fused reporters may be left off the sequences shown.
